# Results from PubChem BioAssay AID1439 (NMMLSC, 2008).
# Protein sequences, listed by entry. Tags and fused reporters are not part of them.
# UniProt P09471, whole entry, looked up: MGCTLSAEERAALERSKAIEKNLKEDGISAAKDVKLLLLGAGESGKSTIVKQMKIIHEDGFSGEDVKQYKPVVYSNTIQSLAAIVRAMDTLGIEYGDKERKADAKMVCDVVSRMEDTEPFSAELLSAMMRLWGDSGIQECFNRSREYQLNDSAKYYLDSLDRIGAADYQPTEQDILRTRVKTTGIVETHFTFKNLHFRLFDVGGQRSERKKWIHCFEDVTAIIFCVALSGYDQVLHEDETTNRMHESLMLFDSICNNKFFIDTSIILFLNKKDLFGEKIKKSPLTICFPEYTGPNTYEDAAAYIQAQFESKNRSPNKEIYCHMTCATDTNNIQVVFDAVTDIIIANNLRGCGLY
# The campaign covered roughly 220,000 compounds. About 770 (0.35%) were called active. Inconclusive results, whose numbers are uncertain, are shown with a selection of clear calls. Cut-off read from the data, not from the text of the source: active = binding response below about 49% or above about 150%; inconclusive = no clear call, values can overlap the other calls; inactive = in between.
# Molecular target: Guanine nucleotide-binding protein G(o) subunit alpha (Homo sapiens) (UniProt P09471)
# Assay: RGS7-Galphao binding modulators, primary screen, biochemical, multiplexed bead flow cytometry (AID 1439);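 note: fluorescent Galphao held in activated GDP-AlF4 state binding bead-coupled RGS7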
# Conditions: at 10 µM, actives lie on both sides
row,Compound,binding response (% of control)
1,COc1cccc(NC(=O)c2cc(CN3C(=O)c4ccccc4C3=O)ccc2OC)c1,inactive: 94.1%
2,O=c1c(-c2ccnn2-c2ccccc2F)cnc2n1CCS2,inactive: 102%
3,CC(C)Cn1c(=S)[nH]c2ccccc2c1=O,inconclusive: 111%
4,CC12CCC(C(=O)Nc3ccncc3)(CC1O)C2(C)C (centres undefined),inconclusive: 84.8%
5,COc1ccc(C(=O)N[C@H](C(=O)Nc2ccc(S(=O)(=O)N3CCOCC3)cc2)C(C)C)cc1,inconclusive: 95.6%
6,Cc1ccc(C2(C)NC(=O)N(CC(=O)Nc3ccc4[nH]c(=O)[nH]c4c3)C2=O)cc1 (centres undefined),inconclusive: 73.3%
7,COc1ccc(C2=C(CC(=O)O)C(=O)CC2)cc1,inactive: 108%
8,C/C(=N\NC(=O)CSc1nc2ccccc2s1)c1cccnc1,inconclusive: 119%
9,OC(CSc1ccccc1Cl)CN1CCN(c2ccccc2F)CC1 (centres undefined),inactive: 120%
10,COc1cc(NC2c3ncccc3C(=O)N2Cc2ccco2)cc(OC)c1OC (centres undefined),inactive: 104%
11,Oc1c(N=NC(=S)Nc2ccccc2F)c2ccccc2n1Cc1ccc(Cl)cc1,inconclusive: 57.4%
12,CCc1oc(C(=O)OC)cc1CSC(=N)N,inconclusive: 37.2%
13,O=C(CSc1n[nH]c(=O)n1C1CC1)NCc1ccccc1Cl,inconclusive: 135%
14,O=C(NCc1cccnc1)C1CCC(CNS(=O)(=O)c2cccc3nsnc23)CC1 (centres undefined),inconclusive: 87%
15,Clc1ccccc1Sc1ccc(-c2ccccn2)s1,inconclusive: 88.5%
16,CCN(Cc1ccncc1)S(=O)(=O)c1ccc(C(C)=O)cc1,inactive: 103%
17,CCN1CCN(c2c(/C=C3\SC(=S)N(Cc4ccco4)C3=O)c(C)c(C#N)c(=O)n2C)CC1,inconclusive: 108%
18,CCN1CCN(c2cc(C)c3cc(NC(=O)c4cccc(OC)c4)ccc3n2)CC1,inconclusive: 90.8%
19,Cc1cccc(N(C(=O)CS(=O)CC(=O)Nc2ccc3c(c2)OCO3)C(C)C(=O)NC2CCCC2)c1C (centres undefined),inconclusive: 106%
20,CN=c1scc(-c2ccc(F)cc2)n1/N=C/c1ccc(O)c(O)c1,inactive: 86.8%

row,Compound,binding response (% of control)
1,O=C(c1[nH]ncc1-c1ccc(Cl)cc1)C1CO1 (centres undefined),inconclusive: 100%
2,Cc1ccccc1-n1nnnc1SCC(C)C,inconclusive: 88.3%
3,O=C(COC(=O)CCC(=O)c1ccc(F)cc1)Nc1cccc(S(=O)(=O)N2CCCC2)c1,inconclusive: 105%
4,O=C(O)c1ccc2c(c1)C(=O)N(c1cccc(S(=O)(=O)Nc3cccc(C(F)(F)F)c3)c1)C2=O,inconclusive: 106%
5,CCNC(=S)Nc1ccc(C)c(S(=O)(=O)Nc2ccccc2OC)c1,inconclusive: 104%
6,CSc1sc(C(=O)NCC2CC2)cc1S(=O)(=O)C(C)C,inconclusive: 147%
7,COc1ccc(/C(C)=N/NC(=O)c2ccc(NS(=O)(=O)c3cccs3)cc2)cc1,inconclusive: 79.8%
8,Cn1cnc(S(=O)(=O)Nc2ccc3c(c2)OCCO3)c1,inconclusive: 103%
9,O=C(Nc1ccc2c(c1)Cc1ccccc1-2)c1cccnc1,inactive: 103%
10,COc1cccc(F)c1C(=O)NC(=O)Nc1ccc2nc(C)oc2c1,inconclusive: 155%
11,Cc1nc(-c2ccc3c(c2)OCCCO3)cs1,inconclusive: 107%
12,CN(C)S(=O)(=O)Oc1ccccc1C(=O)Nc1ccccc1Cl,active: 223% [activator]
13,CC(=O)c1sc(Nc2nc3cc4c(cc3s2)OCO4)nc1C,inactive: 95.3%
14,Cc1cccc(N2CCN(Cc3cc(=O)n4ccsc4n3)CC2)c1C,inactive: 96.1%
15,O=C(O)c1nn(CCOc2cccc(Cl)c2)c(=O)c2ccccc12,inconclusive: 108%
16,O=c1[nH]nc(-c2ccc(F)cc2)cc1Cc1ccc(F)cc1,inconclusive: 117%
17,O=C(NC(=O)c1ccc(F)cc1F)Nc1ccc(Cl)cc1,inconclusive: 87.9%
18,Cc1ccc(C)n1CCN1CCN(S(=O)(=O)c2ccc(F)cc2F)CC1,inconclusive: 111%
19,CN(C)C(=S)Nc1ccc2c(c1)OCO2,inactive: 95%
20,O=C(/C=C/c1cc([N+](=O)[O-])ccc1OC(F)F)Nc1cccc(OC(F)F)c1,inactive: 103%

# Part of the list above, bar-delimited.
row | Compound | binding response (% of control)
11 | Cc1nc(-c2ccc3c(c2)OCCCO3)cs1 | inconclusive: 107%
12 | CN(C)S(=O)(=O)Oc1ccccc1C(=O)Nc1ccccc1Cl | active: 223% [activator]
13 | CC(=O)c1sc(Nc2nc3cc4c(cc3s2)OCO4)nc1C | inactive: 95.3%
14 | Cc1cccc(N2CCN(Cc3cc(=O)n4ccsc4n3)CC2)c1C | inactive: 96.1%
15 | O=C(O)c1nn(CCOc2cccc(Cl)c2)c(=O)c2ccccc12 | inconclusive: 108%

# Following part.

row,Compound,binding response (% of control)
1,C=CCn1c(CNC(=O)c2ccccc2F)nnc1SCC(=O)NC(C)c1ccccc1 (centres undefined),inactive: 100%
2,CCCCc1ccc(S(=O)(=O)NC2CCS(=O)(=O)C2)cc1 (centres undefined),inconclusive: 75.3%
3,Cc1nn(-c2cc(N3CCCC3)ccc2[N+](=O)[O-])c(=O)c2ccccc12,inactive: 101%
4,COc1ccc(/C(N)=N/OC(=O)CCCc2ccccc2)cc1OC,inactive: 101%
5,O=C1/C(=C/c2ccc(F)cc2)SC(=S)N1N1CCOCC1,inconclusive: 114%
6,COc1ccc(CNC(=O)COC(=O)CCc2c[nH]c3ccccc23)cc1,inactive: 106%
7,CCN(CC)CC(=O)Nc1c(C#N)cnn1-c1ccccc1,inconclusive: 102%
8,CCOC(=O)/C(=C\c1ccccc1)NC(=O)c1ccccc1,inconclusive: 100%
9,CN(c1ccccc1)S(=O)(=O)c1cccc(NC(=O)c2cncc(Br)c2)c1,inconclusive: 85.9%
10,Cc1ccc(S(=O)(=O)N(C)C)cc1NC(=O)c1ccncc1,inactive: 102%
11,COc1ccccc1NC(=O)CSc1nc2n[nH]c(C)c2c(=N)n1-c1ccccc1Cl,inactive: 91.1%
12,COc1ccc(/C=C/CN2CCC(CO)(Cc3ccccc3Cl)CC2)cc1,inactive: 101%
13,O=C(CNc1ccc2ccccc2c1)N/N=C/c1ccccn1,inconclusive: 182%
14,COc1ccc(/C=C/c2nc(-c3ccccc3)cc(=O)[nH]2)cc1,inconclusive: 92.8%
15,Cc1ccc(NC(=O)NC2=NN(c3ccccc3)C(=O)/C2=C2/CCCN2C)cc1,inconclusive: 104%
16,Cc1cc(NC(=O)c2cc(-c3ccc(O)cc3)on2)no1,inconclusive: 128%
17,O=C(NCc1ccccn1)C1CCC(CNS(=O)(=O)c2cccc3nsnc23)CC1 (centres undefined),inconclusive: 90.3%
18,COC(=O)c1cncc(C)c1,inconclusive: 113%
19,CC1CC(C)(C)N2C(=O)C(=C(C#N)C#N)c3cccc1c32 (centres undefined),inconclusive: 96.4%
